Assay results as given in PubChem BioAssay AID244 (DTP/NCI, 2004).
The list does not hold the whole screen: it is rich in T/C values a quarter to a half above the control, in often repeated tests (any T/C) and in doses without a T/C. Other doses and runs of a compound stand elsewhere. T/C is the treated group as % of the vehicle group. Some doses have a count of surviving animals in place of a T/C: the source files T/C as zero there, which appears to mark a toxic dose or a test without result, not a measured value. Some doses without a T/C left all or most animals alive at the check, yet need not have been tolerated: survival well below the control is almost never listed, so the zero probably covers shortened survival too. Survivors were counted at the toxicity check, usually on the fifth day, unless a day is given; later deaths do not show. Schedule codes are those of the source, taken here to give the interval after Q, in days (D) or hours (H), and the number of doses after X. Signs of the kind (2×) say how often a value occurs here. For survival time, this PubChem deposit counts one and a half times the control or more as active, and values a quarter to a half above the control carry no call in these data; other NCI protocols may use other cut-offs.

System: CD2F1 mice, Lymphoma 8 ip, survival T/C
Assay: NCI In Vivo Anticancer Drug Screen. Data for tumor model Lymphoma 8 (intraperitoneal) in CD2F1 (CDF1) mice
Conditions: higher T/C = longer survival
Description: The antitumor activity of compounds was measured in mice bearing transplantable tumors. Survival or tumor size were measured and the results are expressed as the measurement made in the treated group (T) divided by the measurement made in the vehicle treated control group (C). The tumor model used in this assay is Lymphoma 8 (intraperitoneal) in CD2F1 (CDF1) mice

NC(CC(=O)CCl)C(=O)O (stereo unspecified)
survivor count (T/C endpoint: median survival time, dose: 50.0 mg/kg/injection, schedule: Q01DX005 (ip), vehicle: saline): 1 of 6

O=NN(CCCl)C(=O)NCCCl
T/C (T/C endpoint: median survival time, dose: 6.25 mg/kg/injection, schedule: Q01DX001 (ip), vehicle: saline): 130 % of control
T/C (T/C endpoint: median survival time, dose: 6.25 mg/kg/injection, schedule: Q01DX005 (ip), vehicle: saline): 137 % of control
survivor count (T/C endpoint: median survival time, dose: 50.0 mg/kg/injection, schedule: Q01DX001 (ip), vehicle: saline): 6 of 6
T/C (T/C endpoint: survival time, mean or median, dose: 12.5 mg/kg/injection, schedule: Q01DX010 (ip), vehicle: saline): 130 % of control
survivor count (T/C endpoint: survival time, mean or median, dose: 25.0 mg/kg/injection, schedule: Q01DX010 (ip), vehicle: saline): 6 of 6
survivor count (T/C endpoint: survival time, mean or median, dose: 50.0 mg/kg/injection, schedule: Q01DX010 (ip), vehicle: saline): 6 of 6

CN(Cc1cnc2nc(N)nc(N)c2n1)c1ccc(C(=O)N[C@@H](CCC(=O)O)C(=O)O)cc1
survivor count (T/C endpoint: median survival time, dose: 3.0 mg/kg/injection, schedule: Q01DX005 (ip), vehicle: saline): 10 of 10

NCC(=O)O
survivor count (T/C endpoint: median survival time, dose: 187.5 mg/kg/injection, schedule: Q04HX020 (ip), vehicle: saline): 10 of 10
survivor count (T/C endpoint: median survival time, dose: 375.0 mg/kg/injection, schedule: Q04HX020 (ip), vehicle: saline): 10 of 10
survivor count (T/C endpoint: median survival time, dose: 750.0 mg/kg/injection, schedule: Q04HX020 (ip), vehicle: saline): 10 of 10
survivor count (T/C endpoint: median survival time, dose: 1500.0 mg/kg/injection, schedule: Q04HX020 (ip), vehicle: saline): 10 of 10

CCSCCC(N)C(=O)O (stereo unspecified)
survivor count (T/C endpoint: median survival time, dose: 150.0 mg/kg/injection, schedule: Q01DX005 (ip), vehicle: saline): 10 of 10

CN1C(=O)C=CC1=O
survivor count (T/C endpoint: median survival time, dose: 4.0 mg/kg/injection, schedule: Q01DX009 (ip), vehicle: saline): 5 of 6
survivor count (T/C endpoint: median survival time, dose: 8.0 mg/kg/injection, schedule: Q01DX009 (ip), vehicle: saline): 0 of 6 (2×)

NC(=O)C(F)(F)C(N)C(=O)O (stereo unspecified)
survivor count (T/C endpoint: median survival time, dose: 200.0 mg/kg/injection, schedule: Q01DX009 (ip), vehicle: saline): 3 of 3

O=CC(S)CO (stereo unspecified)
survivor count (T/C endpoint: median survival time, dose: 200.0 mg/kg/injection, schedule: Q01DX010 (ip), vehicle: saline): 4 of 6
survivor count (T/C endpoint: median survival time, dose: 400.0 mg/kg/injection, schedule: Q01DX010 (ip), vehicle: saline): 0 of 6

Nc1ncn(C2OC(CO)C(O)C2O)c(=O)n1 (stereo unspecified)
T/C (T/C endpoint: median survival time, dose: 1.5 mg/kg/injection, schedule: Q01DX005 (ip), vehicle: saline): 133 % of control
survivor count (T/C endpoint: median survival time, dose: 6.0 mg/kg/injection, schedule: Q01DX005 (ip), vehicle: saline): 10 of 10

CC[C@H]1CN2CCc3cc(OC)c(OC)cc3[C@@H]2C[C@@H]1C[C@H]1NCCc2cc(OC)c(OC)cc21
survivor count (T/C endpoint: median survival time, dose: 30.0 mg/kg/injection, schedule: Q04DX003 (ip), vehicle: water): 8 of 8
